Experimental data from US10906977B2, “Enhancing the therapeutic activity of immune checkpoint inhibitor” (Maine Medical Center Research Institute, priority 2016, dated 2021).
No constants are given. Whether binding was seen depends on the method and setting. Some results given as binding are weak or reduced against the parent protein; the word gives no strength. For some of these results: Tags and fused reporters may be left off the sequences shown. Blank lines part the entries; values can stand above or below the substance they belong to.

By UniProt entry, the sequences of proteins in these tests, tags left out. Where a name states a change or a piece, a line headed by the entry shows the natural chain unless it says otherwise.
UniProt P17301: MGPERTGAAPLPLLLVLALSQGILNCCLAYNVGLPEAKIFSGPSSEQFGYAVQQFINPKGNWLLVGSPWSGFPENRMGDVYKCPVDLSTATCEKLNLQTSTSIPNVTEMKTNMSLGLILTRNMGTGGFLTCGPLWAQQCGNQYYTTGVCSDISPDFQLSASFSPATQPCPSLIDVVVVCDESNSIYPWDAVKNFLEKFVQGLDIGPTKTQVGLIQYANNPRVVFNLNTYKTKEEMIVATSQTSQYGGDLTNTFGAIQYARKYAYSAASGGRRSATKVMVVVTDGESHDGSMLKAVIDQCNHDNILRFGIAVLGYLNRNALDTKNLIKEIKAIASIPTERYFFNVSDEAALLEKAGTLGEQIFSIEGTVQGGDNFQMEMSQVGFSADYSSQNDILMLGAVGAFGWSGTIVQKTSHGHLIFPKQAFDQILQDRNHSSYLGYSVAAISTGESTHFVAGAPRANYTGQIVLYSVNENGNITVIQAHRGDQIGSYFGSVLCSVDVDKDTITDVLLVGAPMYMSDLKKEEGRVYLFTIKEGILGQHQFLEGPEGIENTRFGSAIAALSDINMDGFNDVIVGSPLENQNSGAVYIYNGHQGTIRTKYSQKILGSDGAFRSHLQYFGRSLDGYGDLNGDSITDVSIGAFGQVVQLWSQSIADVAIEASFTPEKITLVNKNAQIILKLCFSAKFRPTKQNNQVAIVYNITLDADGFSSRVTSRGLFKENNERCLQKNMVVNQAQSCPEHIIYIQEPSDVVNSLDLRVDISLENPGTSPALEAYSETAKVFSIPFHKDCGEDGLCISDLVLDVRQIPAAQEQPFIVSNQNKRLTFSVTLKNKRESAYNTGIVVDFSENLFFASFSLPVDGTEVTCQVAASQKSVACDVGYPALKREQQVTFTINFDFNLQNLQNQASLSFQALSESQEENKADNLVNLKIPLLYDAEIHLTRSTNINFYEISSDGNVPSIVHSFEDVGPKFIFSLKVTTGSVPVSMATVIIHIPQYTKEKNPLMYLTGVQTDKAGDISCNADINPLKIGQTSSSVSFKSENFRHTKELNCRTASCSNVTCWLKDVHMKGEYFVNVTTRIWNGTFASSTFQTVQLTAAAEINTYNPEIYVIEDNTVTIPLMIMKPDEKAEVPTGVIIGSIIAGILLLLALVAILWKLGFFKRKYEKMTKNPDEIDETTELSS
UniProt P06756: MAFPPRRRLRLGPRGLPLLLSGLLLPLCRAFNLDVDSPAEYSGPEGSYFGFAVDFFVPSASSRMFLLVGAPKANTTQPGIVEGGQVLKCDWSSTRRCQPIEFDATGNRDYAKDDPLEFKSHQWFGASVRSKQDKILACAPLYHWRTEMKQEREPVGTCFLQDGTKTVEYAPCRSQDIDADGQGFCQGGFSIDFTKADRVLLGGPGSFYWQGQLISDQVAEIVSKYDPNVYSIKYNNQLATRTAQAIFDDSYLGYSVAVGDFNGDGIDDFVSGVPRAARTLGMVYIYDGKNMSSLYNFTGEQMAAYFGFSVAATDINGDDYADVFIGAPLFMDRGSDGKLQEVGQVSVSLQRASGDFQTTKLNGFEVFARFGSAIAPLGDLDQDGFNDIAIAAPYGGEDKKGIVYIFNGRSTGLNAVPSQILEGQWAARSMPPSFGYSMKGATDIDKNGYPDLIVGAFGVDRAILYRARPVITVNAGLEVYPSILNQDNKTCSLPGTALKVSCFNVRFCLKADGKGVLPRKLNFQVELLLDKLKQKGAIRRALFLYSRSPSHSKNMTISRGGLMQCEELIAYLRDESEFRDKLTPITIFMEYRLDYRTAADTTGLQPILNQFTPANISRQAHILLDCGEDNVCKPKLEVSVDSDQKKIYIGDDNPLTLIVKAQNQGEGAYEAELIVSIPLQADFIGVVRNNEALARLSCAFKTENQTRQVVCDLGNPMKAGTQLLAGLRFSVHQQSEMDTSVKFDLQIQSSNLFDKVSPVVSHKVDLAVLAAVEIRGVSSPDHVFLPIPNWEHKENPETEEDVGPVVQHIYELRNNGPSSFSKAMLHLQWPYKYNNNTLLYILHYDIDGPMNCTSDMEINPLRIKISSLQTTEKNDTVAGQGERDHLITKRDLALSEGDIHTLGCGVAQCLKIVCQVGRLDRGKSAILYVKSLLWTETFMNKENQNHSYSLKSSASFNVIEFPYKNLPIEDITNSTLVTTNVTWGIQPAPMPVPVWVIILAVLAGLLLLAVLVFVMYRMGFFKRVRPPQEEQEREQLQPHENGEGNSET
UniProt O75578: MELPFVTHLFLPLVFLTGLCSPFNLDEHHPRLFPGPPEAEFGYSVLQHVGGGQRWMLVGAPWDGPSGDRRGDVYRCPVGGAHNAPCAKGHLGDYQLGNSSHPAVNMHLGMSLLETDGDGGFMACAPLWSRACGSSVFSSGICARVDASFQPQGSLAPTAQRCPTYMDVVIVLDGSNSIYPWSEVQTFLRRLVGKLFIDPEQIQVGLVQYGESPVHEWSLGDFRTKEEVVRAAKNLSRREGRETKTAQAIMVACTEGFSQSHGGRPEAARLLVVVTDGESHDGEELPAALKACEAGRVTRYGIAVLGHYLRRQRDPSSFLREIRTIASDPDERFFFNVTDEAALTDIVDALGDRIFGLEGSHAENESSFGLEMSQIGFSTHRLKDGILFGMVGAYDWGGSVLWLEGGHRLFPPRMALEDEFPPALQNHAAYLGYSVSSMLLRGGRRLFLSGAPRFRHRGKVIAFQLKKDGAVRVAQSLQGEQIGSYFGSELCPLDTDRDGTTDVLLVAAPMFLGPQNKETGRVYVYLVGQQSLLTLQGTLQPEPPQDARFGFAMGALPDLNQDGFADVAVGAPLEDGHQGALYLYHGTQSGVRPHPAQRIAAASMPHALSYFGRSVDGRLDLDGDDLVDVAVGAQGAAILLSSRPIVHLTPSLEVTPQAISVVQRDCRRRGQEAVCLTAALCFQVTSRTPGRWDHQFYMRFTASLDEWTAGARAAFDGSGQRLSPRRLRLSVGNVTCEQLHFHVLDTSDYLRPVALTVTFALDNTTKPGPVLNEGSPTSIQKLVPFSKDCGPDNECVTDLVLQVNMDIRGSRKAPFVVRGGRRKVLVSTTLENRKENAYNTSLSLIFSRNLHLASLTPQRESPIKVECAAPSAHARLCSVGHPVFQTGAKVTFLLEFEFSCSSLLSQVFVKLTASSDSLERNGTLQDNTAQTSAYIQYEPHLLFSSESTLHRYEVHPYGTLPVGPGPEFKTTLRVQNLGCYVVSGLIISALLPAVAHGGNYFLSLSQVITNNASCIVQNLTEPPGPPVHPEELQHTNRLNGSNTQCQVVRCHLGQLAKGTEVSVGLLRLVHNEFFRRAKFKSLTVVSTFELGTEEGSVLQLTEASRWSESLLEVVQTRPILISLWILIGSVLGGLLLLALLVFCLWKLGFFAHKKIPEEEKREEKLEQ

Tests used:
[1] = target: T1, Collagen PGF-peptide (CPGFPGFC), synthetic HU177 epitope; assay: solid-phase binding assay, integrin on immobilized PGF peptide (100 ug/ml)
T1 sequence (peptide): CPGFPGFC

[2] = target: T2, Synthetic collagen RGD containing peptide P-2 (…) (human); assay: solid phase ELISA, P-2 immobilized at 100 µg/ml, increasing recombinant αvβ3
T2 sequence (peptide): CQGPRGDKGEC

[3] = target: T1, Collagen PGF-peptide (CPGFPGFC), synthetic HU177 epitope; assay: solid-phase binding assays (legend of FIG. 23)
[4] = target: T1, Collagen PGF-peptide (CPGFPGFC), synthetic HU177 epitope; assay: ELISA, recombinant integrins on immobilized cPG peptide (legend of FIG. 25)

binding [1]: binds
Substance: integrin α2β1 (recombinant) (from UniProt P17301 30-1132; P05556 21-728) (receptor)

binding [2]: binds
Substance: integrin αvβ3 (recombinant) (from UniProt P06756 31-992; P05106 27-718) (receptor)

binding [3]: binds
binding [4]: binds
Substance: integrin α10β1 (recombinant) (from UniProt O75578 23-1122; P05556 21-728) (receptor)
